Assay results published in patent publication US20170369571A1 (AbbVie / Abbott, published 2017).
These are yes or no findings as the source states them, for the method shown. Some binding calls cover weakened binding; strength is not graded here.

Chains of the proteins cited; added tags and fusions are not shown. Lines headed by an entry give the natural chain unless they say otherwise; changes in a name come on top.
UniProt Q53EL9: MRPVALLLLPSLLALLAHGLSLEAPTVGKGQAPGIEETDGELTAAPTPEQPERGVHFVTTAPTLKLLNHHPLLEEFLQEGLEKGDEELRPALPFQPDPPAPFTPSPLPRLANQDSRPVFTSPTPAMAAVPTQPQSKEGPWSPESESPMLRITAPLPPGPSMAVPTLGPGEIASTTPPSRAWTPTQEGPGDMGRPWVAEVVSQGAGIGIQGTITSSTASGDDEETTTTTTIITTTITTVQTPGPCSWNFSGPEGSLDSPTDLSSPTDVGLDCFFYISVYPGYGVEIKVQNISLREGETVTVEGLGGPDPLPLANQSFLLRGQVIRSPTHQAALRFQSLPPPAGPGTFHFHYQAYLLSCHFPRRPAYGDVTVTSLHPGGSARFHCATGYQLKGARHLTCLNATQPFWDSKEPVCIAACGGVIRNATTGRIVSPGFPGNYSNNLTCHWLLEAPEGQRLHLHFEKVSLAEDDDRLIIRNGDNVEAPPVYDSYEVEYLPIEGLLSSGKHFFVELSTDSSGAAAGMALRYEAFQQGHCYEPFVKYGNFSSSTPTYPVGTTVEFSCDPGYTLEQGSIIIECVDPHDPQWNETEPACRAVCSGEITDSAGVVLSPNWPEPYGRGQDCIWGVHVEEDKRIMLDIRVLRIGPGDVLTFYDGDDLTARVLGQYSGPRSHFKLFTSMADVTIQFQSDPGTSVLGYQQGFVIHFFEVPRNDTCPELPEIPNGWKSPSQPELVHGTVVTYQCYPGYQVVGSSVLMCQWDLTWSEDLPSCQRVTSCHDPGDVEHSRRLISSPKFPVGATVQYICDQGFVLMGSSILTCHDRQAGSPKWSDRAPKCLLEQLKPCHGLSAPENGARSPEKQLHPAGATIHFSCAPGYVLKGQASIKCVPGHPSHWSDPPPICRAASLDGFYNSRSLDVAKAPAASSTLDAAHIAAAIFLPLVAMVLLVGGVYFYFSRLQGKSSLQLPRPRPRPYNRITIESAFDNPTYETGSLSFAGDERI
UniProt Q7TSK2: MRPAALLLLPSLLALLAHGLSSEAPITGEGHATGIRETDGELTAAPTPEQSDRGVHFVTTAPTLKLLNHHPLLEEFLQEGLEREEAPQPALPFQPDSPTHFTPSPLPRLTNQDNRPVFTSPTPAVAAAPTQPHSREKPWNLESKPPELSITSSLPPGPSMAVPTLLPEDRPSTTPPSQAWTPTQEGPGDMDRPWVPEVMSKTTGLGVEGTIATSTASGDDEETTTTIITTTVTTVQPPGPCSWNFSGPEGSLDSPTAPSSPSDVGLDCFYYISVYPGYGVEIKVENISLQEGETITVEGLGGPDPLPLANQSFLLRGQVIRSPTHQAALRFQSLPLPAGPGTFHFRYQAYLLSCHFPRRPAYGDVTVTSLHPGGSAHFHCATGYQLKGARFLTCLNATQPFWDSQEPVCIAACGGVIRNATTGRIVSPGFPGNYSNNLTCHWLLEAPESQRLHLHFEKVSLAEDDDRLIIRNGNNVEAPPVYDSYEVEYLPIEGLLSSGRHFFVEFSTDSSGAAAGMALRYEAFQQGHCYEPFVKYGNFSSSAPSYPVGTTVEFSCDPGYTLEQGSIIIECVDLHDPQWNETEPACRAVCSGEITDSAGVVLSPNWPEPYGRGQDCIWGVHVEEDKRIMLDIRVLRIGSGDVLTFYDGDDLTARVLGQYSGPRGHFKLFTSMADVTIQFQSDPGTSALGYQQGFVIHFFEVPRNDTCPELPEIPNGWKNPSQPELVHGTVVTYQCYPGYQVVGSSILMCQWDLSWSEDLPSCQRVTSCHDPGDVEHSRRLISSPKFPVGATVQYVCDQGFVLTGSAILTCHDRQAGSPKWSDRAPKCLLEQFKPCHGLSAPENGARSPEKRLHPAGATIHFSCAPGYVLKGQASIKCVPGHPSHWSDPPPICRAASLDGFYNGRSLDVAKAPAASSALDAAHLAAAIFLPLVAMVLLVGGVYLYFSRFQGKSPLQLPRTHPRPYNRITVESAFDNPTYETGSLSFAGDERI

What was measured:
[1] = molecular target: recombinant human SEZ6 ECD with 9-Histidine tag (human) (UniProt Q53EL9); test: SPR, Biacore 2000; antigen not named in the paragraph
[2] = molecular target: recombinant human SEZ6 ECD with 9-Histidine tag (human) (UniProt Q53EL9); test: assay and antigen not given
[3] = molecular target: cynomolgus SEZ6 extracellular domain displayed on yeast (cynomolgus); test: flow cytometry on yeast displaying cynomolgus SEZ6 ECD, 5 ug/mL antibody
[4] = molecular target: rat SEZ6 on RIN-m5F cells (rat); test: flow cytometry on RIN-m5F cells, 5 ug/mL antibody
[5] = molecular target: mouse SEZ6 on Neuro2a cells (mouse) (UniProt Q7TSK2); test: flow cytometry on Neuro2a cells, 5 ug/mL antibody
[6] = molecular target: human SEZ6 overexpressed on HEK-293T cells (human) (UniProt Q53EL9); test: immunohistochemistry, formalin fixed paraffin embedded cell pellets

binding [1] | binding [2] | Binder | also measured
binds | binds | hSC17.34 (antibody, human IgG1, V domains shown) VH: QVQLVQSGAEVKKPGASVKVSCKASGYTFTDYNMDWVRQAPGQRLEWIGYIYPDNGGAGYNQKFKGRVTITVDTSASTAYMELSSLRSEDTAVYYCSRSITTAWFAYWGQGTLVTVSS VL: DIQMTQSPSSLSASVGDRVTITCKASQDINSYLSWFQQKPGKAPKSLIYRANRLVDGVPSRFSGSGSGTDYTLTISSLQPEDFATYYCLQYDEFPPTFGQGTKLEIK | –
– | binds | hSC17.156 (antibody, human IgG1, V domains shown) VH: QVTLKESGPVLVKPTETLTLTCTVSGFSLSTSGMGVSWIRQPPGKALEWLAHIFWDDDKWYNPSLKSRLTISKDTSKSQVVLTMTNMDPVDTATYYCATFYGLYFAYWGQGTLVTVSS VL: DIVMTQTPLSLPVTPGEPASISCRSSQSIVHSNGNTYLEWYLQKPGQSPQLLIYKVSNRFSGVPDRFSGSGSGTDFTLKISRVEAEDVGVYYCFQGSHVPPTFGGGTKLEIK | –
binds | binds | hSC17.46 (antibody, human IgG1, V domains shown) VH: QVQLVQSGAEVKKPGASVKVSCKASGYTFTSYWINWVRQAPGQGLEWIGNIFPDTTTTNYNEKFKGRVTLTRDTSISTAYMELSRLRSDDTAVYYCAREYYDGTYDAMDYWGQGTLVTVSS VL: AIQMTQSPSSLSASVGDRVTITCKASQSVNNDVAWYQQKPGKAPKLLIYYASNRYTGVPSRFSGSGSGTDFTLTISSLQPEDFATYFCQQDYSSPRTFGQGTKLEIK | –
– | – | SC17.34 (antibody, V domains shown) VH: EVQLQQSGPELVKPGSSVKISCKASGYTFTDYNMDWVKQSHGKRLEWIGYIYPDNGGAGYNQKFKGKATLTVDKSSSTAYMELRSLTSEDSAVYYCSRSITTAWFAYWGQGTLVTVSA VL: DIKMTQSPSSMYASLGERVTITCKASQDINSYLSWFQQKPGKSPKTLIYRANRLVDGVPSRFSGSGSGQDYSLTISSLEYEDMGIYYCLQYDEFPPTFGGGTKLEIK | binding [3]: binds; binding [4]: binds
– | – | SC17.24 (antibody, V domains shown) VH: QVQLQQSDAELVKPGASVKISCKVSGYTFTDHTIHWMKQRPEQGLEWIGYIYPRDGSTKYNEEFKGKATLTADKSSSTAYMQLNSLTSEDSAVYFCARSYSNYFDYWGQGTTLTVSS VL: DIVMSQSPSSLAVSVGEKVTMSCKSSQSLLYSSNQKSYLAWYQQKPGQSPKLLIYWASTRESGVPDRFTGSGSGTDFTLTISSVQAEDLAVYYCKQSYNLRTFGGGTKLEIK | binding [3]: binds; binding [5]: binds
– | binds | hSC17.151 (antibody, human IgG1, V domains shown) VH: QVQLVQSGAEVKKPGASVKVSCKASGYTFTSYWMHWVRQAPGQGLEWMGAIYPGKSDTTYNQKFKGRVTMTRDTSTSTVYMELSSLRSEDTAVYYCARSGKGYFAYWGQGTLVTVSS VL: EIVLTQSPATLSLSPGERATLSCRASESVDSYGNSFMHWYQQKPGQAPRLLIYRASNLESGIPARFSGSGSGTDFTLTISSLEPEDFAVYYCQQSHEDPYTFGQGTKLEIK | –
– | binds | hSC17.200 (antibody, human IgG1, V domains shown) VH: EVQLVQSGAEVKKPGESLKISCKGSGYSFTSSWINWVRQMPGKGLEWMGRIYPGEGDTNYSGNFEGQVTISADKSISTAYLQWSSLKASDTAMYYCTRGLVMDYWGQGTLVTVS VL: EIVLTQSPATLSLSPGERATLSCRASQSVDYNGISYMHWYQQKPGQAPRLLIYAASNVQSGIPARFSGSGSGTDFTLTISSLEPEDFAVYYCQQSIEDPPTFGGGTKVEIK | –
– | binds | hSC17.200vL1 (antibody, V domains shown) VH: EVQLVQSGAEVKKPGESLKISCKGSGYSFTSSWINWVRQMPGKGLEWMGRIYPGEGDTNYSGNFEGQVTISADKSISTAYLQWSSLKASDTAMYYCTRGLVMDYWGQGTLVTVS VL: EIVLTQSPATLSLSPGERATLSCRASQSVDYDGISYMHWYQQKPGQAPRLLIYAASNVQSGIPARFSGSGSGTDFTLTISSLEPEDFAVYYCQQSIEDPPTFGGGTKVEIK | –
binds | binds | hSC17.28 (antibody, human IgG1, V domains shown) VH: QVQLVQSGAEVKKPGASVKVSCKASGYTFTRSYIHWVRQAPGQGLEWMGYISSGSGGTTYNQKFKGRVTSTRDTSISTAYMELSRLRSDDTAVYYCARGGVRYFDVWGQGTTVTVSS VL: EIVLTQSPDFQSVTPKEKVTITCRASQSIGTSIHWYQQKPDQSPKLLIKYASESISGVPSRFSGSGSGTDFTLTINSLEAEDAATYYCQQSNSWPLTFGQGTKLEIK | –
– | binds | hSC17.161 (antibody, human IgG1, V domains shown) VH: QVQLVQSGAEVKKPGASVKVSCKASGFTFSDAWMDWVRQAPGQRLEWMGEIRSKPNNHATYYAESVKGRVTITRDTSASTAYMELSSLRSEDTAVYYCARTGTSYWGQGTLVTVSS VL: DIVMTQSPDSLAVSLGERATINCESSQSLLYNSNQKNYLAWYQQKPGQPPKLLIYWASTRESGVPDRFSGSGSGTDFTLTISSLQAEDVAVYYCQQYFNYPLTFGQGTKLEIKR | –
– | binds | hSC17.161vH1 (antibody, V domains shown) VH: EVQLVESGGGLVQPGGSLRLSCAASGFTFSDAWMDWVRQAPGKGLEWVGEIRSKPNNHATYYAESVKGRFTISRDDSKNSLYLQMNSLKTEDTAVYYCARTGTSYWGQGTLVTVSS VL: DIVMTQSPDSLAVSLGERATINCESSQSLLYNSNQKNYLAWYQQKPGQPPKLLIYWASTRESGVPDRFSGSGSGTDFTLTISSLQAEDVAVYYCQQYFNYPLTFGQGTKLEIKR | –
binds | binds | hSC17.16 (antibody, human IgG1, V domains shown) VH: QVQLVQSGAEVKKPGASVKVSCKASGYTFTDYNMYWVRQAPGQGLEWMGEINPNNGGTAYNQKFRGKVTMTRDTSISTAYMELSRLRSDDTAVYYCARYDKGFDYWGQGTTVTVSS VL: DIQMTQSPSSLSASVGDRVTITCRASANINSNLVWYQQKPGKAPKLLIYAATNLADGVPSRFSGSGSGTDFTLTISSLQPEDFATYYCQHFWGTPRTFGGGTKLEIK | –
– | – | SC17.17 (antibody, V domains shown) VH: EVQLQQSGPEVMKPGASVKMSCKASGYTFTDYNMHWVKQNQGKSLEWIGEINPNIGGTGYNQKFKGKATLTVHKSSSTAYMELRSLTSEDSAVYYCARTYSYYSYEFAYWGQGTLVTVSA VL: QIVLTQSPAIMSASPGEKVTMTCSASSSVSYMHWYQQKSGTSPKRWIYDTSKLPSGVPARFSGSGSGTSYSLTISSMEAEDAATYYCQQWSSTPPTFGAGTKLELK | binding [3]: binds; binding [4]: binds
– | – | SC17.140 (antibody, V domains shown) VH: EVQLQQSGPELMKPGASVKMSCKASGYTFTDYNMHWVKQNQGKSLEWIGEINPNTGGTGYNQKFKGKATLTVDKFSSTAFIELRSLTSEDSAIYYCTRGGYDHYWYFDVWGAGTTVTVSS VL: QIVLTQSPAIMSASPGEKVTMTCSASSSVSYMHWYQQKSGTSPKRWIYDTSKLASGVPARFSGSGSGTSYSLTISSMEAEDAATYYCQQWSSTPPTFGSGTKLEIK | binding [6]: binds
binds | binds | hSC17.17 (antibody, human IgG1, V domains shown) VH: QVQLVQSGAEVKKPGASVKVSCKASGYTFTDYNMHWVRQAPGQGLEWMGEINPNIGGTGYNQKFKGRVTMTRDTSISTAYMELSRLRSDDTAVYYCARTYSYYSYEFAYWGQGTLVTVSS VL: EIVLTQSPATLSLSPGERATLSCSASSSVSYMHWYQQKPGQAPRLLIYDTSKLPSGIPARFSGSGSGTDFTLTISSLEPEDFAVYYCQQWSSTPPTFGQGTKLEIK | –
